Results are given in words; binding and its absence hold for the method and conditions named. Binding seen in cells or lysates may run through a third protein. These calls come from enrichment with a bait or labelling near it, and not all partners need be listed.
What was measured:
[1] = target: YTH-domain family protein 3 (YTHDF3), endogenous (human (endogenous in HK1)) (UniProt Q7Z739); experiment: affinity purification with mass spectrometry; endogenous YTHDF3 partners precipitated from HK1 cell lysates by YTHDF3 antibodies coupled to protein A/G beads; identified by mass spectrometry
TAP-YTHDF3^WT = TAP-YTHDF3^WT (UniProt Q7Z739); experiment: affinity purification with mass spectrometry; HK1 cells stably expressing TAP-YTHDF3^WT (SBP-3HA); lysate extracted with excess streptavidin resin; eluate identified by mass spectrometry; TAP-vector as control

By UniProt entry, the sequences of proteins in these tests, tags left out.
UniProt Q7Z739: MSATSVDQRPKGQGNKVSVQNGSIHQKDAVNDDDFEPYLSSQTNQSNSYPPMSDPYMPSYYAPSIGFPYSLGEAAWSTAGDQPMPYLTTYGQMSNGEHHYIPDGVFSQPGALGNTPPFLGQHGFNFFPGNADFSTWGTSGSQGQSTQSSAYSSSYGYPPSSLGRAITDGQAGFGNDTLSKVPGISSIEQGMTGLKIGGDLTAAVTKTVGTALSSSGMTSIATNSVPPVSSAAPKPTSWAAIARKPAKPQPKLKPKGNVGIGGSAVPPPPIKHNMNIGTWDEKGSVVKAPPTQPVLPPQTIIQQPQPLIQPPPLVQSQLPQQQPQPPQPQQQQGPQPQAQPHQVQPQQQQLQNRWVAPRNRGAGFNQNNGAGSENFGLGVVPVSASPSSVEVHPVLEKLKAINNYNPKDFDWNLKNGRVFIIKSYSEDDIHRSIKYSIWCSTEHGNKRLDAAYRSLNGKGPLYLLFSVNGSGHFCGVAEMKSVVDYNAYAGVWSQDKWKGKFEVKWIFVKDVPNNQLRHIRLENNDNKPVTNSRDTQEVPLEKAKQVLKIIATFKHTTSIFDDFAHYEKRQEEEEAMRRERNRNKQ
UniProt P17844: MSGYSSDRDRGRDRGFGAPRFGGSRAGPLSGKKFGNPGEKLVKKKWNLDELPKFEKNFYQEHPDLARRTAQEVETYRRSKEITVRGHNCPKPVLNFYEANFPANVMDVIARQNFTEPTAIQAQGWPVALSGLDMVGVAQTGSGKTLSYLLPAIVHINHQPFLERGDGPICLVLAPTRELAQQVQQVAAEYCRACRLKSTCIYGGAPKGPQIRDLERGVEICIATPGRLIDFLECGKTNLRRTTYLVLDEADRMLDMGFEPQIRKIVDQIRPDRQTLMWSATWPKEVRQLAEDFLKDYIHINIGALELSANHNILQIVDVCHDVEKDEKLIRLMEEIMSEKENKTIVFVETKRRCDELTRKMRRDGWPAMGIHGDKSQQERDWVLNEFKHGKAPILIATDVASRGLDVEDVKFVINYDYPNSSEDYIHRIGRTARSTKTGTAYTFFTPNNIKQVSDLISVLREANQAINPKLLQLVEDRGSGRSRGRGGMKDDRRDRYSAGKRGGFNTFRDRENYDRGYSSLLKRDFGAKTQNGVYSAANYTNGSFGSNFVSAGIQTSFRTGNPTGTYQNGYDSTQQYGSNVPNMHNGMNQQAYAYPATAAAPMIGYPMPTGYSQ
UniProt Q92841: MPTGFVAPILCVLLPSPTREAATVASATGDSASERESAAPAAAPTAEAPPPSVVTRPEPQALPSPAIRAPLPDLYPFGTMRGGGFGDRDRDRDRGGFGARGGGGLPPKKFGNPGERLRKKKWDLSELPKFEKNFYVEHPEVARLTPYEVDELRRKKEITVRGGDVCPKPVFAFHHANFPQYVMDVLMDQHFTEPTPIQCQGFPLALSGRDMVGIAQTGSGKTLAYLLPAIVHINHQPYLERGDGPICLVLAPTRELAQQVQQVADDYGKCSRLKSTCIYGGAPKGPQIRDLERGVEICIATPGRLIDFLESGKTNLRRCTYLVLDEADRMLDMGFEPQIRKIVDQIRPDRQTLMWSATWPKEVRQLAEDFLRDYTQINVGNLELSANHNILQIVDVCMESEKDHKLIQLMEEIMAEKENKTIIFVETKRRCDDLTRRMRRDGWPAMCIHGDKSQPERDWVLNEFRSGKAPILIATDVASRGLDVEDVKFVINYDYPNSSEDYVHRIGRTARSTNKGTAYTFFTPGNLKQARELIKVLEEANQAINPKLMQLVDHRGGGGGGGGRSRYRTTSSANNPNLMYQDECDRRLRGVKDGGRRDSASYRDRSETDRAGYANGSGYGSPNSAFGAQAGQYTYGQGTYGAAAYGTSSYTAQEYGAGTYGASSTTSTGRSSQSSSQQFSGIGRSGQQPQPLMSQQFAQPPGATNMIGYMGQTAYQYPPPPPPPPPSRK

binding [1] | binding (TAP-YTHDF3^WT) | Substance
binds | binds | DEAD-box protein 5 (DDX5), endogenous (from UniProt P17844 1-614)
binds | binds | DDX17, endogenous (from UniProt Q92841 1-729)

Reference: article PMC11087256
